Test results published in publication PMC6883073.
For at least one entry, the source does not settle the construct or the ends of the probe. At least one verdict rests on a figure or table, not on a statement of the authors.

Tested on: VEGF-165
Test: EMSA
Conditions: PBS + 0.005% Tween 20, pH 7.4 (+50 mM KCl for aptamer B), 2.5 nM aptamer heated at 90 C and cooled, recombinant protein, protein details: His-tag, label: 5' fluorescein, folded or branched DNA

## GCCCGTCTTCCAGACAAGAGTGCAGGGCTTTTTTTTTTTTTTTTTTTTAGGTCGACGGTCACGCGACTGCGCATCA [AT20Am (second domain scrambled)]
1:1 complex only, 1:2 complex absent (0, 10, 125 nM)
  binding result: binds

## CAATTGGGCCCGTCCGTATGGTGGGT [fC (SL2-B)]
10 nM VEGF-165
  binding signal (fraction bound): 0.01
25 nM nfA competitor, apparent Kd
  Kd: 0.135 µM

## GCCCGTCTTCCAGACAAGAGTGCAGGGCTTTTTTTTTTTTTTTTTTTTTTTTTTTTTTGCCCGTCTTCCAGACAAGAGTGCAGGGC [AT30A]
10 nM VEGF-165, below AT20A
  binding result: binds

## GCCCGTCTTCCAGACAAGAGTGCAGGGCGCCCGTCTTCCAGACAAGAGTGCAGGGC [AT0A]
10 nM VEGF-165, below AT20A
  binding result: binds

## GCCCGTCTTCCAGACAAGAGTGCAGGGCTTTTTTTTTTGCCCGTCTTCCAGACAAGAGTGCAGGGC [AT10A]
10 nM VEGF-165, below AT20A
  binding result: binds

## TGTGGGGGTGGACTGGGTGGGTACC [fB (3R02)]
50 mM KCl added
  Kd: > 1.5 µM
